Assay results from publication PMC8210386.
These are yes or no findings as the source states them, for the method shown. In cells and extracts the contact can be indirect. Some results given as binding are weak or reduced against the parent protein; the word gives no strength.

Chains of the proteins cited; added tags and fusions are not shown. Lines headed by an entry give the natural chain unless they say otherwise; changes in a name come on top. Residues count along the entry.
UniProt O00206, residues 24-839: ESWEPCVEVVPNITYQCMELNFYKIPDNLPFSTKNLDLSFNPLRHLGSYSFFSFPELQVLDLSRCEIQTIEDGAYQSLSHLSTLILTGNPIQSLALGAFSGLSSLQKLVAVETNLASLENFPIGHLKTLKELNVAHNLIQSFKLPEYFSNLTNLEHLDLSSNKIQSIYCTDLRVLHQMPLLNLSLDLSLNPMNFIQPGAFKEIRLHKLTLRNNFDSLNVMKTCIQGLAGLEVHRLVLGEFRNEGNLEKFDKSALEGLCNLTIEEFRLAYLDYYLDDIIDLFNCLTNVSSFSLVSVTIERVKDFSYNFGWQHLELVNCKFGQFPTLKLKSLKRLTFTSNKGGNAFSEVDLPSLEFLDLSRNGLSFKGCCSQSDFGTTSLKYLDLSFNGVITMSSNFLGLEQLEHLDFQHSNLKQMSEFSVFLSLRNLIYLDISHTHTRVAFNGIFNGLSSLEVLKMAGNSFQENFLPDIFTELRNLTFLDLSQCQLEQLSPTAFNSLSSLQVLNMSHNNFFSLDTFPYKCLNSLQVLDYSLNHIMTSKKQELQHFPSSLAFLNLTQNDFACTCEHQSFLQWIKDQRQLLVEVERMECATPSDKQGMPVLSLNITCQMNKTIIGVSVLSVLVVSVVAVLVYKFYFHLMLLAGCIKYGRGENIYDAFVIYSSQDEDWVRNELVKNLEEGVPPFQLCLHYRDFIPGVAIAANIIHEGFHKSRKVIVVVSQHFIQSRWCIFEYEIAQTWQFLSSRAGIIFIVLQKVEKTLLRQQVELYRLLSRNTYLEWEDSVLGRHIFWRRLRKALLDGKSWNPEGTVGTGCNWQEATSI
UniProt P06748: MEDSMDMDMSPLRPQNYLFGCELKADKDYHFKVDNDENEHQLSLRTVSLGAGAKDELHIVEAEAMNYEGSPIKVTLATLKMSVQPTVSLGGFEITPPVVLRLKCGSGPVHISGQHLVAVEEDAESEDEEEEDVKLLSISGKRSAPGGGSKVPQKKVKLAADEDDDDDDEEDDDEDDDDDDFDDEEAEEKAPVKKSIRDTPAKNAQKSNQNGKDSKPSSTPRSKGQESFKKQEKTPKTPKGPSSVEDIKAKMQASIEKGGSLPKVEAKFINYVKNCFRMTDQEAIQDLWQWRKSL

Tests used:
[1] = biological target: Toll-like receptor 4 (TLR4), endogenous in human cardiac mesenchymal progenitor cells (human (endogenous in hCmPCs)) (UniProt O00206); experiment: proximity ligation; DuoLink in situ PLA with anti-NPM1 and anti-TLR4 on serum-starved hCmPCs, fixed, not permeabilised, without added rNPM (endogenous NPM released into serum-free medium)
[2] = biological target: Toll-like receptor 4 (TLR4), endogenous in human cardiac mesenchymal progenitor cells (human (endogenous in hCmPCs)) (UniProt O00206); experiment: proximity ligation; DuoLink in situ PLA on NPM knocked-down (shNPM) recipient hCmPCs placed in conditioned media of ShScr or ShNPM secreting hCmPCs treated or not with 50 mJ/cm^2 UV for 4h; not permeabilised
[3] = biological target: Toll-like receptor 4 (TLR4), endogenous in human cardiac mesenchymal progenitor cells (human (endogenous in hCmPCs)) (UniProt O00206); experiment: proximity ligation; DuoLink in situ PLA with anti-NPM1 and anti-TLR4 on serum-starved hCmPCs treated with rNPM (0.5 ug/ml) for 8h, fixed, not permeabilised; only the binder purified
[4] = biological target: Nucleophosmin (NPM), endogenous in human cardiac mesenchymal progenitor cells (human (endogenous in hCmPCs)) (UniProt P06748); experiment: co-IP; hCmPC cell extracts immunoprecipitated overnight at 4C with NPM antibody (ab245326) and protein A/G agarose, rabbit IgG as control; Western blot with TLR4 antibody; lysis buffer 50 mM HEPES pH 7.5, 250 mM NaCl, 0.1% Tween 20

Nucleophosmin (NPM), endogenous in human cardiac mesenchymal progenitor cells (from UniProt P06748-1 1-294)
binding [1]: binds | binding [2]: binds

recombinant NPM (rNPM), Abcam Ab114194 (from UniProt P06748 1-294)
binding [3]: binds

Toll-like receptor 4 (TLR4), endogenous in human cardiac mesenchymal progenitor cells (from UniProt O00206 24-839)
binding [4]: binds
